From paper PMC6726739 come the findings set out here.

These are yes or no findings as the source states them, for the method shown. Binding calls can cover weak binding; strength is not graded here. Where a sequence is shown, tags or fusion partners need not be part of it.

This assay addresses AvrPto in pGBKT-7 (Pseudomonas syringae pv. tomato DC3000). In words: two-hybrid; Matchmaker GAL4 Two-Hybrid System 3, yeast AH109; effectors and AvrPtoB forms in pGBKT-7 (BD), plant proteins in pGADT-7 (AD); growth on SD-Trp/-Leu/-His/-Ade, 5 days.

B1: EXO70B1, full length, fused to the Gal4 transactivation domain (protein, UniProt Q9FGH9 1-624)
chain: MAENGEEKLLAVARHIAKTLGHNESMADDILQIFSNFDGRFSREKLAEGQAGEDGSGVATLERALNSIDGQISRFVAADQPIWADPADSAAFLDTIDELVAIIREWSPMASEKPIGICLTRADDMMQQAMFRIEEEFRSLMERGAESFGLNPQGDAGAMNHRFDSEEEEDDDRDFNNGDDIQIPVAQPLTDYDLIIDALPSATINDLHEMAKRMLGAGFGKACSHVYSSCRREFLEESMSRLGLQKLSIEEVHKMPWQELEDEIDRWIKAANVALRILFPSERRLCDRVFFGFSSAADLSFMEVCRGSTIQLLNFADAIAIGSRSPERLFKVLDVFETMRDLMPEFESVFSDQFCSVLRNEAVTIWKRLGEAIRGIFMELENLIRRDPAKAAVPGGGLHPITRYVMNYLRAACRSRQTLEQVFEESNGVPSKDSTLLTVQMSWIMELLESNLEVKSKVYKDPALCYVFLMNNGRYIVQKVKDGDLGLLLGDDWIRKHNVKVKQYHMNYQRSSWNKMLGLLKVDNTAAGMNGLGKTMKEKLKQFNIQFDEICKVHSTWVVFDEQLKEELKISLARLLVPAYGSFIGRFQNLGDIGKNADKYIKYGVEDIEARINELFKGTTTGRK
B1: the binding entry is “binds”.
